From doi:10.1101/2024.11.10.622873 (bioRxiv, 2024) come the findings set out here.

Results are given in words; binding and its absence hold for the method and conditions named. Binding calls can cover weak binding; strength is not graded here.

In the assay the target is C-terminal domain of Clostridium perfringens enterotoxin, in solution (Clostridium perfringens) (UniProt P01558). As to the kind of experiment: BLI.
With human claudin-6 (from UniProt P56747), the binding entry was “binds”.
For the substance human claudin-9 (from UniProt O95484), the binding entry was “binds”.
In the case of human claudin-17 (from UniProt P56750), the binding result is “binds”.
With human claudin-19 (from UniProt Q8N6F1), the binding result was “binds”.
